In US20250261660A1, “FORMULATIONS AND METHODS FOR USE IN OXIDATION TREATMENT APPLICATIONS” (priority 2022, published 2025):

Tested on: catalase enzyme
Conditions: 4 mL oxidant solution added to 40 mL untreated water, room temperature, after 4 minutes

## OO [hydrogen peroxide]
  thickness of head of foam: approximately 1 inches
